Reference: patent publication US11185552B2, “Inhibitors of glucose-6-phosphate dehydrogenase for treating cardiovascular and pulmonary conditions” (ICHOR, LLC., priority 2016, dated 2021)
At least one structure is not confirmed: it was looked up by name or label, or the drawing left a doubt.

Legend:
[1] = test system: Rat pulmonary artery smooth muscle cells; assay: Cell number/proliferation by Cyquant assay; type: cell-based; conditions: 72 hr treatment, versus vehicle control
Experimental: (§1) FIGS. 4A and 4B are graphs showing results for rat pulmonary artery smooth muscle cells that were cultured in 15% DMEM media for 48 hr and cells were treated with newly synthesized G6PD drugs; PD109 (109), PD2124 (2124), PD2958 (2958) and PD4091 (4091) or vehicle control (Con) for 72 hr. Cell number/proliferation (FIG. 4A) and apoptosis (FIG. 4B) was determined by Cyquant and Caspase3/7 assay, respectively. Cell numbers were decreased by G6PD inhibitors (FIG. 4A). Cell apoptosis was increased by PD2958 (1 microM) N=5 in each group (FIG. 4B).
as §1, with “Rat” for “FIGS. 4A and 4B are graphs showing results for rat”, “cells” for “cells that”, “number/proliferation” for “number/proliferation (FIG. 4A)”, “apoptosis” for “apoptosis (FIG. 4B)”, “inhibitors.” for “inhibitors (FIG. 4A).”, “(FIGS. 4A and” for “(FIG.”

[2] = test system: Bovine pulmonary artery rings; assay: Relaxation of KCl pre-contracted bovine pulmonary artery rings; conditions: pre-contracted with KCl (30 mM), Krebs buffer
Experimental: FIG. 6 is a graph showing bovine pulmonary artery rings that were incubated in Krebs buffer and pre-contracted with KCl (30 mM). These pre-contracted rings relaxed by G6PD inhibitors; PD109 (109), PD2124 (2124), PD2958 (2958) and PD4091 (4091) or dehydroepiandrosterone (DHEA).
Bovine pulmonary artery rings were incubated in Krebs buffer and pre-contracted with KCl (30 mM). These pre-contracted rings relaxed by G6PD inhibitors; PD109 (109), PD2124 (2124), PD2958 (2958) and PD4091 (4091) or dehydroepiandrosterone (DHEA) (FIG. 6).

SMILES: CC(=O)[C@H]1CC[C@H]2[C@@H]3CC[C@H]4C[C@@H](NS(C)(=O)=O)CC[C@]4(C)[C@H]3CC[C@]12C [PD4091, N-[(3β,5α)-20-Oxopregnan-3-yl]methanesulfonamide]
- Cell number/proliferation [1]: decreased
- relaxation of pre-contracted pulmonary artery rings [2]: relaxed
